The target in the assay is T1, Dab-1 with a flag tag added to its C terminus (UniProt O75553).
T1 sequence: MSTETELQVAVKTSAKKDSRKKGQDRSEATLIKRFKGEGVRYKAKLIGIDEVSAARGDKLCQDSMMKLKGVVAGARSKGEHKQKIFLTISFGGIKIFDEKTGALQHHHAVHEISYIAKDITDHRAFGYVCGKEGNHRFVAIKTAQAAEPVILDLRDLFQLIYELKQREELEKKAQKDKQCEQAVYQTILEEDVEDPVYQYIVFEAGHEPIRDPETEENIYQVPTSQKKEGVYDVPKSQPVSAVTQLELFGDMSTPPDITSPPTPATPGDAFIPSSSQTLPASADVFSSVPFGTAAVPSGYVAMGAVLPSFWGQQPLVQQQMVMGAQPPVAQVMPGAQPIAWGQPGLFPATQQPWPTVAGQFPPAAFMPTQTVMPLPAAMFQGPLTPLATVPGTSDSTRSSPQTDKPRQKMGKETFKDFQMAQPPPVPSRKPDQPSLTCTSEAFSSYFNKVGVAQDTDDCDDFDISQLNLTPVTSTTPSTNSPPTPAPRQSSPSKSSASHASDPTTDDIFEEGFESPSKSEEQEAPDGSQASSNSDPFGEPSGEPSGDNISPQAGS
Nature of the assay: co-IP; HNPCs transfected with Dab-1-FLAG for 24 hours; lysed in RIPA buffer (150 mM NaCl, 1% IGEPAL CA-630, 0.5% sodium deoxycholate, 0.1% SDS, 50 mM Tris pH 8.0) with 1% Triton-X; 700 ug protein with anti-Flag, anti-Notch-1 or anti-NICD for 3 hours at 4 C, protein G- or A-Sepharose 1 hr at 4 C, washed 5x with lysis buffer; western blot. (In general: A western blot detects proteins with antibodies after separation by electrophoresis.)

By UniProt entry, the sequences of proteins in these tests, tags left out. Where a name states a change or a piece, a line headed by the entry shows the natural chain unless it says otherwise.
UniProt P46531: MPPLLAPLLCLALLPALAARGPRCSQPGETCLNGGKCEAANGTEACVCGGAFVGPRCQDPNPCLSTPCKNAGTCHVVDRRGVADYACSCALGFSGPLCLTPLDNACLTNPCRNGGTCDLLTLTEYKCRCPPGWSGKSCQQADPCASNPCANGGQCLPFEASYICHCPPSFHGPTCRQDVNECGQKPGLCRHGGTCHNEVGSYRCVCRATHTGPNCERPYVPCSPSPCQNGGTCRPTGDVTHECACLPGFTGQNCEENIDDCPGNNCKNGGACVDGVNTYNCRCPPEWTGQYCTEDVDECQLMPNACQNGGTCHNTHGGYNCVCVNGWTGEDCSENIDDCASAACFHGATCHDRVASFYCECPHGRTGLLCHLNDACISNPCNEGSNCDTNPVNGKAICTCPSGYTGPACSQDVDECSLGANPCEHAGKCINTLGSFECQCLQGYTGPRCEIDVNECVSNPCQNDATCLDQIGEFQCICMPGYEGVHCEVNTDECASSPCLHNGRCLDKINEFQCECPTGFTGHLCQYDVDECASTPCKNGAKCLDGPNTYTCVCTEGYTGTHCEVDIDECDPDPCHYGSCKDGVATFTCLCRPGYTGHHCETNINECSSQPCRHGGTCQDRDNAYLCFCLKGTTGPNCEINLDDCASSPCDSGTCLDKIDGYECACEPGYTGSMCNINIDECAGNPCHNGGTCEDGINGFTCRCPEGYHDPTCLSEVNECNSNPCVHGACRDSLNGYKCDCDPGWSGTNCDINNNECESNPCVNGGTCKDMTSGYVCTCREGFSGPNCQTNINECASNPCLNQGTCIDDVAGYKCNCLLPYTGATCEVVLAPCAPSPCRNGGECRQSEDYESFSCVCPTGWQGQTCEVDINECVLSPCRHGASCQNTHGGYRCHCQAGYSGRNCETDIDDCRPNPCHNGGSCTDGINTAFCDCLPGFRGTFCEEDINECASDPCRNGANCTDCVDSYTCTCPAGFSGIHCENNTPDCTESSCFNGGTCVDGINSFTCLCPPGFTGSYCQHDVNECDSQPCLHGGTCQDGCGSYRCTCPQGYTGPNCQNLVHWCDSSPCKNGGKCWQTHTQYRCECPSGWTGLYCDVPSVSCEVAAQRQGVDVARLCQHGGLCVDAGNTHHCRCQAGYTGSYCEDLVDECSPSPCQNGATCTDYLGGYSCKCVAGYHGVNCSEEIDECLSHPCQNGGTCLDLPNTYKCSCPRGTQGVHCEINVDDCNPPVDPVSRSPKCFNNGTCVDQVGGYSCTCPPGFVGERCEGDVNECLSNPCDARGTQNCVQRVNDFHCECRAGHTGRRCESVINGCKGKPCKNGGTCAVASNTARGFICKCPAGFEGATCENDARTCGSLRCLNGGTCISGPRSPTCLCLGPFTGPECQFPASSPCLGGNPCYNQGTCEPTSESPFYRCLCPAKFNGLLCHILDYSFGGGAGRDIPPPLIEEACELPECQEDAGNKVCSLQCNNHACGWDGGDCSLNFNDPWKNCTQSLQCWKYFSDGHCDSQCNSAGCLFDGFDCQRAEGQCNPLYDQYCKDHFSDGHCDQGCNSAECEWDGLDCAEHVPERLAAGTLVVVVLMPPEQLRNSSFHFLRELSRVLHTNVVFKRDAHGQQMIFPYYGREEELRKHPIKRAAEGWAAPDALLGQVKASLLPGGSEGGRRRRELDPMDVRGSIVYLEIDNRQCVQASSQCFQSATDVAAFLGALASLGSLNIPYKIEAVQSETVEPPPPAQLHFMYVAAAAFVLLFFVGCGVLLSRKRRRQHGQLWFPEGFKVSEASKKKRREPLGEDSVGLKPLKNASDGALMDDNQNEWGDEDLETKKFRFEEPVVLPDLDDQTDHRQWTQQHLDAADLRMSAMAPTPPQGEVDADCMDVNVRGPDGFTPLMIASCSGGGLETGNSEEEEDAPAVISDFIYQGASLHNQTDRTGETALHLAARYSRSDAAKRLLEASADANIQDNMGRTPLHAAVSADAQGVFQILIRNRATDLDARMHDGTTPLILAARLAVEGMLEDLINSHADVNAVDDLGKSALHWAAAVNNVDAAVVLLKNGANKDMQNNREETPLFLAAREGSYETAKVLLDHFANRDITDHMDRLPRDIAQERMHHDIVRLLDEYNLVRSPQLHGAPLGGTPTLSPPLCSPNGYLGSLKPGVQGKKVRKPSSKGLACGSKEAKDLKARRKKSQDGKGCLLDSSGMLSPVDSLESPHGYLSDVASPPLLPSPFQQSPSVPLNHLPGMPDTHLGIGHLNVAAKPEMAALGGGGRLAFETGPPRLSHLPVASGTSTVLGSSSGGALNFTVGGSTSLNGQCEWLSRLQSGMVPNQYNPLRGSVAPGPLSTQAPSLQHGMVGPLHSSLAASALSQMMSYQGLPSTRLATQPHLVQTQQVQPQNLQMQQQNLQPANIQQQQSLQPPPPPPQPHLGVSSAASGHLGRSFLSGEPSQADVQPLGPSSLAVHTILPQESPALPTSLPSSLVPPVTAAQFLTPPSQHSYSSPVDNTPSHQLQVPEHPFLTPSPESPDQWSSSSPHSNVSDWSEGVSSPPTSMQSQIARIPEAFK

The results in this text go back to PMC2447831.

No constants are given. Whether binding was seen depends on the method and setting. Binding seen in cells or lysates may run through a third protein. Some results given as binding are weak or reduced against the parent protein; the word gives no strength. Sequences can lack the tags named with a protein.

With “Notch-1 intracellular domain (NICD) (from UniProt P46531 1754-2555) (domain or fragment)”, the binding entry was “binds”.

Turning to “full-length Notch-1 (from UniProt P46531 19-2555) (receptor)”, the binding result is given as “binds”.
